Assay results as given in paper PMC7862700.
This is a selection; strong and weak results do not stand in their true shares. For part of these data: At the low end of the ranking the order means little. This is one part of the list. For part of these data: Construct or isoform of the protein are uncertain.

The chains behind the UniProt entries cited, without tags or fusion partners. Where a name states a change or a piece, a line headed by the entry shows the natural chain unless it says otherwise.
UniProt P32519: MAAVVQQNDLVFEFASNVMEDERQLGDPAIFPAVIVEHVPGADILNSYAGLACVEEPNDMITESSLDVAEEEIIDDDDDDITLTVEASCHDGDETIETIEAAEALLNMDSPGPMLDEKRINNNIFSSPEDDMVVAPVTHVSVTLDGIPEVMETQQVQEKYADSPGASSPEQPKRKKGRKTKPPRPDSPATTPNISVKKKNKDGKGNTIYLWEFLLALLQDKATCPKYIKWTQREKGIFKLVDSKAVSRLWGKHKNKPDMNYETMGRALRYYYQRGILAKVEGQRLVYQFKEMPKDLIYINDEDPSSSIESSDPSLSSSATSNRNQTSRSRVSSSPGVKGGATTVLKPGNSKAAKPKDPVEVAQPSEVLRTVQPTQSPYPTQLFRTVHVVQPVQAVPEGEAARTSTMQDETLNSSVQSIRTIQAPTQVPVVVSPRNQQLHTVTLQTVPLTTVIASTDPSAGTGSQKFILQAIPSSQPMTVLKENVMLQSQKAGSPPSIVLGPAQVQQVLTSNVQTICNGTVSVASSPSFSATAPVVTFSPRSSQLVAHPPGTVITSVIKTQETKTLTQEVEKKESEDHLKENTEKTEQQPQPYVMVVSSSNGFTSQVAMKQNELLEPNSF
UniProt P50549: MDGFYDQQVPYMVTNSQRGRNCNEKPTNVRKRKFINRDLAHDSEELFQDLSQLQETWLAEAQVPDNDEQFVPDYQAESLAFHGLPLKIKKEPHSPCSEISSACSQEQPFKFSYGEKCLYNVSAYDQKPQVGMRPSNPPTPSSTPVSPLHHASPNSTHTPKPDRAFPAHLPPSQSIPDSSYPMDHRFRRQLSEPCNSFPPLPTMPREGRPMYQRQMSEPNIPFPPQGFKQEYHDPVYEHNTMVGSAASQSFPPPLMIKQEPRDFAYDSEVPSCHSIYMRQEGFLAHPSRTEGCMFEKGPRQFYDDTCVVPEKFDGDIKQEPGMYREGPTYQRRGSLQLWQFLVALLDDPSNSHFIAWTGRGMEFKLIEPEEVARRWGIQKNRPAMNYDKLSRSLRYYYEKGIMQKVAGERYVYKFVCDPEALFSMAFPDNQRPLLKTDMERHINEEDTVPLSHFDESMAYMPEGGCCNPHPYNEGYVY

Key:
Test in all cases: DAPPL (digital affinity profiling via proximity ligation, sequencing)
Conditions in all cases: 10 mM Tris-HCl pH 7.5, 50 mM NaCl, 1 mM DTT, 4% glycerol, room temperature, 30 min; GST-TFs on glutathione beads, 16-mer random dsDNA library, 0.1% …; high values mean tight binding; double strand, one strand shown; scale: fold enrichment (6-mer frequency, TF over GST control)
ERG = molecular target: T1, ERG (UniProt P11308)
T1 sequence: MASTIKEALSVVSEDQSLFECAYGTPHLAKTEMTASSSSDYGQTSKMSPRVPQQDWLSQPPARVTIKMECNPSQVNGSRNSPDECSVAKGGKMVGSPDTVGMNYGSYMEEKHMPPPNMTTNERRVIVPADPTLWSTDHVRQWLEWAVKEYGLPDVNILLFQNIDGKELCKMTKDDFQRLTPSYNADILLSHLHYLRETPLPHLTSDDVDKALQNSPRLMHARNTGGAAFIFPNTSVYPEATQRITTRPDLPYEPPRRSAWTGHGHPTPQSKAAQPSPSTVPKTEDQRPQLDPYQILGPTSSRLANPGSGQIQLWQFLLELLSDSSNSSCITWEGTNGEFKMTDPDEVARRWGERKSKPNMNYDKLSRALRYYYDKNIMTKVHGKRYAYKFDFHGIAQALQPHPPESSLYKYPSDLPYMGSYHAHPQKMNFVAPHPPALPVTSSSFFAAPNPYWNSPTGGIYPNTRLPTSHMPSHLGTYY

ELF1 = ELF1 (UniProt P32519)
ELK4 = molecular target: T2, ELK4 (UniProt P28324-2)
T2 sequence: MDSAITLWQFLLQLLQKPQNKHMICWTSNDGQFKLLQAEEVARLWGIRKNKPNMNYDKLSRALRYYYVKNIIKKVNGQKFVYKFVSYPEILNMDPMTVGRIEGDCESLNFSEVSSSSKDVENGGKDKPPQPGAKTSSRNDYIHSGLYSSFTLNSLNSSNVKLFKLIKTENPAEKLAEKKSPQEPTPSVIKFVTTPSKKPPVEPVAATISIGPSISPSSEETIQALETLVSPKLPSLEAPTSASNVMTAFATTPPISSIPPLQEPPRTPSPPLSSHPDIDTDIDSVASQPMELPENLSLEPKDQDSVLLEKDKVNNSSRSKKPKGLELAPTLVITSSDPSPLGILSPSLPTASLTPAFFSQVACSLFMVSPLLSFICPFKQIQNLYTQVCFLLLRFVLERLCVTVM

ETV4 = molecular target: T3, ETV4 (UniProt P43268)
T3 sequence: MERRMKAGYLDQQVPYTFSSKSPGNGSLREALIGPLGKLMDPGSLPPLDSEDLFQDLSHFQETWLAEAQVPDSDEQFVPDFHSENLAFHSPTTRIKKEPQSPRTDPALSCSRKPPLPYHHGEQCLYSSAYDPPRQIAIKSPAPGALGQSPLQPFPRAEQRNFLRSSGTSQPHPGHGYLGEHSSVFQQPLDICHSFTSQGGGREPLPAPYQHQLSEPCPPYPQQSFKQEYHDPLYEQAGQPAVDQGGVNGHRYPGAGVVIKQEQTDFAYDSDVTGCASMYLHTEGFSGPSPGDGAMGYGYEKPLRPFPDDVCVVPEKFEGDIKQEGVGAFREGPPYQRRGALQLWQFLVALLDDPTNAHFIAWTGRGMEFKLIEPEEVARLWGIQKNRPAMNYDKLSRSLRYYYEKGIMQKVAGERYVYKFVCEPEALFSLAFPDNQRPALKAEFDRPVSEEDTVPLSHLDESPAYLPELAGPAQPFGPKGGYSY

ETV1 = ETV1 (UniProt P50549)
ERF = molecular target: T4, ERF (UniProt P50548)
T4 sequence: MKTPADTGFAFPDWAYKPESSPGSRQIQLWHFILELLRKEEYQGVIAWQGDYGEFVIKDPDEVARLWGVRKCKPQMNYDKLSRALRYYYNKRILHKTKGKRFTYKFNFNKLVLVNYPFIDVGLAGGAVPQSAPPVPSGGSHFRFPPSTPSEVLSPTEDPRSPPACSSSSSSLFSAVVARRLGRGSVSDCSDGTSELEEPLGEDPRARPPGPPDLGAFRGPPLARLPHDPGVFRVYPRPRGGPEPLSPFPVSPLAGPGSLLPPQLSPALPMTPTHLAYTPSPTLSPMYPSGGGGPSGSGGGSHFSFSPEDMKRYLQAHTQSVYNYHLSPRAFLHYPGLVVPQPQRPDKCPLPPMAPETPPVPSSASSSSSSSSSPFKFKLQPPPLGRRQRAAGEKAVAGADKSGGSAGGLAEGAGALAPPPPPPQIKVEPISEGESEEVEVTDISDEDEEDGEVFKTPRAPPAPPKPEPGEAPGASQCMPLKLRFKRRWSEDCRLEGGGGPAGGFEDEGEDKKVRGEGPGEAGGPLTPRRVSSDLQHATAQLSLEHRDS

| Sequence | binding signal (ERG) | binding signal (ELF1) | binding signal (ELK4) | binding signal (ETV4) | binding signal (ETV1) | binding signal (ERF) |
| --- | --- | --- | --- | --- | --- | --- |
| CCGTGA | 0.182 | 0.168 | 0.21 | 0.17 | 0.189 | 0.193 |
| GGAGTA | 0.333 | 0.342 | 0.373 | 0.355 | 0.354 | 0.385 |
| GCGGTC | 0.649 | 0.68 | 0.655 | 0.73 | 0.615 | 0.642 |
| ACTAGT | 0.919 | 0.859 | 0.83 | 0.84 | 0.848 | 0.925 |
| TCGGAC | 0.386 | 0.401 | 0.379 | 0.373 | 0.358 | 0.378 |
| GTGGTG | 0.997 | 0.927 | 0.974 | 0.881 | 0.916 | 0.926 |
| TGTGGG | 0.817 | 0.796 | 0.876 | 0.897 | 0.691 | 0.828 |
| GGAGGC | 0.275 | 0.238 | 0.255 | 0.244 | 0.259 | 0.231 |
| GTCGGA | 0.187 | 0.168 | 0.134 | 0.158 | 0.153 | 0.144 |
| CGCCGT | 0.951 | 0.971 | 0.968 | 0.926 | 0.98 | 0.966 |
| GCGGGT | 0.576 | 0.662 | 0.602 | 0.571 | 0.604 | 0.595 |
| AGCGGT | 0.772 | 0.672 | 0.803 | 0.69 | 0.716 | 0.726 |
| AGGCCT | 0.951 | 0.929 | 0.991 | 0.972 | 0.961 | 0.883 |
| GTGAAC | 0.823 | 0.871 | 0.892 | 0.786 | 0.883 | 0.844 |
| GGTTGC | 0.927 | 0.902 | 0.989 | 0.912 | 0.941 | 0.914 |
| GAAGAG | 0.898 | 0.885 | 0.805 | 0.882 | 0.94 | 0.913 |
| GCCATA | 0.879 | 0.949 | 0.853 | 0.974 | 0.94 | 0.984 |
| CGTGTA | 0.648 | 0.657 | 0.642 | 0.653 | 0.649 | 0.63 |
| GTACGT | 0.757 | 0.865 | 0.777 | 0.859 | 0.906 | 0.844 |
| AGGGCA | 0.857 | 0.787 | 0.786 | 0.881 | 0.844 | 0.848 |
| GAAGGC | 0.965 | 0.936 | 0.954 | 0.931 | 0.912 | 0.852 |
| GAGCCA | 0.623 | 0.613 | 0.635 | 0.615 | 0.556 | 0.581 |
| GTCCGA | 0.902 | 0.896 | 0.8 | 0.87 | 0.85 | 0.879 |
| CGCATC | 0.965 | 0.915 | 0.764 | 0.917 | 0.883 | 0.829 |
| GGGAGC | 0.414 | 0.395 | 0.34 | 0.388 | 0.381 | 0.403 |
| TAGCCA | 0.799 | 0.885 | 0.833 | 0.848 | 0.892 | 0.921 |
| CAGCGG | 0.468 | 0.445 | 0.49 | 0.431 | 0.479 | 0.425 |

2 entries picked at random from those above:

| Sequence | binding signal (ERG) | binding signal (ELF1) | binding signal (ELK4) | binding signal (ETV4) | binding signal (ETV1) | binding signal (ERF) |
| --- | --- | --- | --- | --- | --- | --- |
| ACTAGT | 0.919 | 0.859 | 0.83 | 0.84 | 0.848 | 0.925 |
| GGAGTA | 0.333 | 0.342 | 0.373 | 0.355 | 0.354 | 0.385 |
